In patent publication US20050074826A1:
No constants are given. Whether binding was seen depends on the method and setting. Some results given as binding are weak or reduced against the parent protein; the word gives no strength.

Protein sequences, listed by entry. Tags and fused reporters are not part of them. Residues count along the entry.
UniProt P61073: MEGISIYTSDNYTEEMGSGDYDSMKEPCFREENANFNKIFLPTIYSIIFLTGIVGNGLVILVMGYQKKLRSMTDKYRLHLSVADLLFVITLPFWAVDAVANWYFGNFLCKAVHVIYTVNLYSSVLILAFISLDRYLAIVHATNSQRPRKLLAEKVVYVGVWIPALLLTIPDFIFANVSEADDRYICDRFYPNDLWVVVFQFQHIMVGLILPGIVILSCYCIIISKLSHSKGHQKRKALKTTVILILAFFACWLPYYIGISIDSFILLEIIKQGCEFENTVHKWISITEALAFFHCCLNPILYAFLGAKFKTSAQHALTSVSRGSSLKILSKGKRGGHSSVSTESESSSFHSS
UniProt P40224, residues 22-89: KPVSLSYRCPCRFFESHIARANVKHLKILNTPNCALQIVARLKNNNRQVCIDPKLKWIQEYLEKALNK

Molecular target: CXCR4, human (human) (UniProt P61073)
Assay: DisplaceMax displacement of 125I SDF-1α on CEM-NKr cells (CXCR4)

With “mouse SDF-1 (from UniProt P40224 22-89) (ligand)” the binding was “binds”.
